Assay: Efflux ratio of apparent permeability from basolateral to apical side over apical to basolateral side in human Caco2 cells at 10 uM incubated for 1 hr by HPLC-MS/MS analysis
Assay type: ADME, cell-based
Conditions: Caco-2

C[C@H]1O[C@@H](O[C@H]2[C@@H](O)C[C@H](O[C@H]3[C@@H](O)C[C@H](O[C@H]4CC[C@@]5(C)[C@H](CC[C@@H]6[C@@H]5C[C@@H](O)[C@]5(C)[C@@H](C7=CC(=O)OC7)CC[C@]65O)C4)O[C@@H]3C)O[C@@H]2C)C[C@H](O)[C@@H]1O [DIGOXIN]
efflux ratio at 1 h, 10 µM: 11.2

Reference: ChEMBL document CHEMBL3779865, “Discovery of Benzo[cd]indol-2(1H)-ones as Potent and Specific BET Bromodomain Inhibitors: Structure-Based Virtual Screening, Optimization, and Biological Evaluation” (J Med Chem, 2016)
